These are yes or no findings as the source states them, for the method shown. Some binding calls cover weakened binding; strength is not graded here.
Experiments:
[1] = biological target: T1, Secreted Protein, Acidic, Rich in Cysteines (SPARC) (UniProt P09486); assay: concentration-dependent binding ELISA (FIG. 9)
T1 sequence (looked up): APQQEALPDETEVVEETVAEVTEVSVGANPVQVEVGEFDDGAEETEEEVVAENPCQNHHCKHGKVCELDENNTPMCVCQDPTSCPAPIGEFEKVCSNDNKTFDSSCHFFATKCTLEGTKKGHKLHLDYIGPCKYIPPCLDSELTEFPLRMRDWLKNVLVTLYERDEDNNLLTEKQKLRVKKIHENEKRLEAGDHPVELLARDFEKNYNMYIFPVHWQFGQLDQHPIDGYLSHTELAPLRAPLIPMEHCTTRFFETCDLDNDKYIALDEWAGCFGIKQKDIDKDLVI

[2] = biological target: T1, Secreted Protein, Acidic, Rich in Cysteines (SPARC); assay: concentration-dependent ELISA on SPARC
[3] = biological target: T1, Secreted Protein, Acidic, Rich in Cysteines (SPARC); assay: ELISA and IHC
[4] = biological target: T2, Abx SPARC (SPARC from engineered HEK293 cells produced by Abraxis) (UniProt P09486); assay: Biacore (SPR), SPARC immobilised; KD values only in FIG. 20B
T2 sequence (looked up): T1 sequence (looked up)

[5] = biological target: T3, HTI SPARC (purified platelet SPARC obtained from HTI) (UniProt P09486); assay: as above
T3 sequence (looked up): T1 sequence (looked up)

[6] = biological target: T1, Secreted Protein, Acidic, Rich in Cysteines (SPARC); assay: Biacore (SPR), SPARC immobilised, scFv as flow through
[7] = biological target: T1, Secreted Protein, Acidic, Rich in Cysteines (SPARC); assay: scFv phage display screening, ELISA
[8] = biological target: T1, Secreted Protein, Acidic, Rich in Cysteines (SPARC); assay: phage ELISA and soluble scFv ELISA with SPARC as antigen
[9] = biological target: T1, Secreted Protein, Acidic, Rich in Cysteines (SPARC); assay: Biacore, SPARC immobilised on the chip, scFv in the flow; which SPARC preparation is not said

Measured: binding

B1: PD 15 (peptide)
peptide: YTRLHHWIPPQR
notes: 12-mer from the Ph.D.-12 phage library; The peptide was cloned into pFUSE-hIgG1-Fc2 and expressed as the PD 15-Fc fusion; also called peptide 15; PD 15-Fc
binds: [1] | [2] | [3]

B2: PD 21 (peptide)
peptide: VTPLLKFRALSS
notes: 12-mer from the Ph.D.-12 phage library; The peptide was cloned into pFUSE-hIgG1-Fc2 and expressed as the PD 21-Fc fusion; also called peptide 21; PD 21-Fc
binds: [1] | [2] | [3]

B3: ScFv 2-1 (scFv)
scFv: EVQLLESGGGLVQPGGSLRLSCAASGFTFSSYAMSWVRQAPGKGLEWVSMITPLGSTTAYADSVKGRFTISRDNSKNTLYLQMNSLRAEDTAVYYCAKRAGVFDYWGQGTLVTVSSGGGGSGGGGSGGGGSTDIQMTQSPSSLSASVGDRVTITCRASQSISSYLNWYQQKPGKAPKLLIYRASTLQSGVPSRFSGSGSGTDFTLTISSLQPEDFATYYCQQNDSFPTTFGQGTKVEIKR
notes: It was purified from bacteria on a nickel column
not listed: [1] | [2] | [3]
binds: all other assays above

B4: ScFv 2-2 (scFv)
scFv: EVQLLESGGGLVQPGGSLRLSCAASGFTFSSYAMSWVRQAPGKGLEWVSHIQGQGRATYYADSVKGRFTISRDNSKNTLYLQMNSLRAEDTAVYYCAKTHGKFDYWGQGTLVTVSSGGGGSGGGGSGGGGSTDIQMTQSPSSLSASVGDRVTITCRASQSISSYLNWYQQKPGKAPKLLIYRASRLQSGVPSRFSGSGSGTDFTLTISSLQPEDFATYYCQQPSGVPTTFGQGTKVEIK
binds: [7] | [8]
